In patent US9526737B2, “Oxysterols for activation of hedgehog signaling, osteoinduction, antiadipogenesis, and Wnt signaling” (THE REGENTS OF THE UNIVERSITY OF CALIFORNIA, priority 2007, dated 2016):
For at least one compound, name, drawing or mass did not settle the structure.

Key:
[1] = test system: M2-10B4 marrow stromal cells; assay: Alkaline phosphatase (ALP) activity assay; details: M2 cells pre-treated 2 h with inhibitor; for Inhibition of Shh-induced ALP activity: then 200 ng/ml Shh for 3 days; for Inhibition of oxysterol-induced ALP activity: then 2.5 μM SS for 3 days
[2] = test system: Wnt Inhibitory factor-1 (Wif-1) mRNA expression; format: cell-based; details: M2 cells pre-treated 2 h with inhibitor, then 5 μM SS for 48 h
Experimental: (§1) Total RNA was extracted with the RNA isolation kit from Stratagene (La Jolla, Calif.) according to the manufacturer's instructions. RNA was DNase-treated using the DNA-free kit from Ambion, Inc. (Austin, Tex.). 3 μg of RNA was reverse-transcribed using reverse transcriptase from Stratagene (La Jolla, Calif.) to make single stranded cDNA. The cDNAs were mixed with Qi SYBR Green Supermix from Bio-Rad Laboratories (Hercules, Calif.) for quantitative RT-PCR using a Bio-Rad I-cycler IQ quantitative thermocycler. All PCR samples were prepared in triplicate or quadruplicate. Each sample was added to duplicate wells of a 96-well plate. After 40 cycles of PCR, melt curves were analyzed in order to ensure primer specificity, and the identity of all PCR products were verified by sequencing and comparing with the complete mRNA sequence obtained from PubMed's GenBank. Fold changes in gene expression were calculated using the ΔΔCt method (14). All primers were designed using the Beacon Designer software from Bio-Rad Laboratories (Hercules, Calif.). Primers used are as follows: OCN (5′-[…]-3′ (SEQ ID NO: 1) and 5′-[…]-3′ (SEQ ID NO: 2)), Axin2(5′[…]-3′ (SEQ ID NO: 3) and 5′-[…]-3′ (SEQ ID NO: 4)), Cyclin D1(5′-[…]-3′ (SEQ ID NO: 5) and 5′-[…]-3′ (SEQ ID NO: 6)), NKD2 (5′-[…]-3′ (SEQ ID NO: 7) and 5′[…]-3′ (SEQ ID NO: 8)), WIF-1 (5′-[…]-3′ (SEQ ID NO: 9) and 5′-[…]-3′ (SEQ ID NO: 10)), and GAPDH (5′-[…]-3′ (SEQ ID NO: 11) and 5′-[…]-3′ (SEQ ID NO: 12)).
(§2) M2 cells were treated with 5 μM SS, 200 ng/ml Shh, or control vehicle for 48 h. RNA was isolated and analyzed by Q-RT-PCR for Nkd2 (E) and WIF-1 (F) expression (See FIGS. 4E and 4F).
(§3) M2 cells were pre-treated for 2 h with vehicle or cyclopamine (Cyc) at the concentrations indicated. Next, cells were treated with 5 μM SS or control vehicle for 48 h. RNA was isolated and analyzed for Nkd2 (A) and WIF-1 (B) expression by Q-RT-PCR (See FIGS. 5A and 5B).
(§4) M2 cells were pre-treated for 2 h with Dkk-1 or vehicle. Next, cells were treated with 5 μM SS or control vehicle for 48 h. RNA was isolated and analyzed for Nkd2 (C), Wif-1 (D), and Ptch (E) expression (See FIGS. 5C-5E).
(§5) M2 cells were pre-treated for 2 h with 5 μM LY, 2.5 μM Wm, or vehicle followed by treatment with 5 μM SS or control vehicle for 48 h. RNA was isolated and analyzed for Nkd2 (FIG. 7E) and Wif-1 (FIG. 7F) expression.

[3] = test system: Naked Cuticle 2 (Nkd2) mRNA expression; format: cell-based; details: M2 cells pre-treated 2 h with inhibitor, then 5 μM SS for 48 h
Experimental: as §1, §2, §3, §4, §5

[4] = test system: M2-10B4 marrow stromal cells; assay: 45Ca incorporation assay (matrix mineralization); format: cell-based; details: M2 cells pre-treated 2 h with inhibitor, then SS for 12-14 days
Experimental: ^45Ca incorporation assay as a measure of matrix mineralization in cell monolayers was performed as previously described (45).
^45Ca incorporation assay (see Example above) was used to measure mineralization in M2 cells pre-treated with 1 μg/ml Dkk-1 or vehicle for 2 h, and then treated with control vehicle or 2.5 μM SS 12 days (See FIG. 2D).
^45Ca incorporation assay was used to measure mineralization in M2 cells pre-treated with various doses of LY, 1 μM Wm, or vehicle for 2 h, and then treated with 5 μM SS or control vehicle for 14 days (See FIG. 7C).
M2-10B4 cells were treated for 14 days with control vehicle (C) or various concentrations (μM) of oxysterols as indicated. SS refers to 20S-hydroxycholesterol+22S-hydroxycholesterol in combination. After 12 days with refeeding every 5th day, ^45Ca was added and on day 14, ^45Ca incorporation was measured (See FIG. 18).

[5] = test system: osteocalcin (OCN) mRNA expression; assay: Q-RT-PCR for osteocalcin (OCN) mRNA expression; format: cell-based; details: M2 cells pre-treated 2 h with inhibitor, then SS
Experimental: Total RNA was extracted with the RNA isolation kit from Stratagene (La Jolla, Calif.) according to the manufacturer's instructions. RNA was DNase-treated using the DNA-free kit from Ambion, Inc. (Austin, Tex.). 3 μg of RNA was reverse-transcribed using reverse transcriptase from Stratagene (La Jolla, Calif.) to make single stranded cDNA. The cDNAs were mixed with Qi SYBR Green Supermix from Bio-Rad Laboratories (Hercules, Calif.) for quantitative RT-PCR using a Bio-Rad I-cycler IQ quantitative thermocycler. All PCR samples were prepared in triplicate or quadruplicate. Each sample was added to duplicate wells of a 96-well plate. After 40 cycles of PCR, melt curves were analyzed in order to ensure primer specificity, and the identity of all PCR products were verified by sequencing and comparing with the complete mRNA sequence obtained from PubMed's GenBank. Fold changes in gene expression were calculated using the ΔΔCt method (14). All primers were designed using the Beacon Designer software from Bio-Rad Laboratories (Hercules, Calif.). […]
M2 cells were pre-treated with vehicle or 1 μg/ml Dkk-1 for 2 h followed by treatment with control vehicle or 5 μM SS for 6 days. RNA was isolated and analyzed by Q-RT-PCR for OCN expression (See FIG. 2E).
RNA was analyzed for OCN expression by Q-RT-PCR and normalized to GAPDH (p<0.01 for Control versus SS and for SS versus SS+LY and SS+Wm) (See FIG. 7B).

| SMILES | Inhibition of Shh-induced ALP activity [1] | Inhibition of oxysterol-induced ALP activity [1] | Inhibition of oxysterol-induced Wif-1 expression [2] | Inhibition of oxysterol-induced Nkd2 expression [3] | Inhibition of oxysterol-induced mineralization (45Ca incorporation) [4] | Inhibition of oxysterol (SS)-induced OCN mRNA expression [5] |
| --- | --- | --- | --- | --- | --- | --- |
| COC[C@H]1OC(=O)c2coc3c2[C@@]1(C)C1=C(C3=O)[C@@H]2CCC(=O)[C@@]2(C)C[C@H]1OC(C)=O [Wm, wortmannin] | inhibited | significantly inhibited | partial yet significant inhibition | partial yet significant inhibition | significantly inhibited | significantly inhibited |
| O=c1cc(N2CCOCC2)oc2c(-c3ccccc3)cccc12 [LY, LY 294002] | inhibited | significantly inhibited | partial yet significant inhibition | partial yet significant inhibition | significantly inhibited | significantly inhibited |
